PubChem BioAssay AID1259405 | NCATS – 2018
The whole screen tested about 50,000 reagents; below is a random part of them. Of all reagents, about 4,000 (8%) were called active. 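Mouse siRNA library applied to hamster cells; one well for each siRNA.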 The numbers tell different reagents against one gene apart.

- Assay: 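Silenced genes that increase secreted GFP made by CHO cells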 (primary screen)
- Cells: Chinese hamster CHO-K1 ovary cells with stable secreted eGFP expression
- Reagents: single siRNA against mouse genes, 0.8 pmol siRNA per well (2 µl of 400 nM stock)
- Time to read-out: 3 days
- Detection: 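Percent of the per-plate non-targeting control median for intracellular GFP per well by laser scanning cytometry and for cell viability by ATP luminescence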
- Reading the numbers: GFP, % of control: higher = more GFP per well, higher productivity; viability (ATP), % of control: higher = more viable cells (more ATP)
- Active means: 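a knock-down is called active if GFP reaches 120% or more of non-targeting control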

For Ca15 #1, what does the deposit list?
GFP, % of control: 59; viability (ATP), % of control: 47.1; Outcome: inactive

What is on record for Ca15 #2?
GFP, % of control: 66.9; viability (ATP), % of control: 61.8; Outcome: inactive

For Ca15 #3, how do the results read?
GFP, % of control: 61; viability (ATP), % of control: 74.5; Outcome: inactive

With Dnajc7 #1, what does the deposit list?
GFP, % of control: 53.2; viability (ATP), % of control: 63.5; Outcome: inactive

What did the screen give for Dnajc7 #2?
GFP, % of control: 73.4; viability (ATP), % of control: 80.2; Outcome: inactive

What is on record for Dnajc7 #3?
GFP, % of control: 68.9; viability (ATP), % of control: 98.7; Outcome: inactive

For Mrc2 #1, what does the deposit list?
GFP, % of control: 75.5; viability (ATP), % of control: 161; Outcome: inactive

How did the screen score Mrc2 #2?
GFP, % of control: 108; viability (ATP), % of control: 76; Outcome: inactive

With Mrpl58 #1, what was measured?
GFP, % of control: 65.8; viability (ATP), % of control: 79.3; Outcome: inactive

How did the screen score Mrpl58 #2?
GFP, % of control: 43.4; viability (ATP), % of control: 44.5; Outcome: inactive

For Mrpl58 #3, how do the results read?
GFP, % of control: 67; viability (ATP), % of control: 84.7; Outcome: inactive

For Pacsin1 #1, what does the deposit list?
GFP, % of control: 88.2; viability (ATP), % of control: 71.8; Outcome: inactive

What did the screen give for Pacsin1 #2?
GFP, % of control: 63; viability (ATP), % of control: 49.2; Outcome: inactive

For Setd1a #1, how do the results read?
GFP, % of control: 47.7; viability (ATP), % of control: 23.9; Outcome: inactive

What is on record for Setd1a #2?
GFP, % of control: 111; viability (ATP), % of control: 109; Outcome: inactive

For Setd1a #3, what does the deposit list?
GFP, % of control: 32.6; viability (ATP), % of control: 21.6; Outcome: inactive

Only “GFP, % of control” (2 entries from above):
Ca15 #2	66.9
Ca15 #3	61

Additional records follow.
For Cnpy1 #1, what does the deposit list?
GFP, % of control: 53.6; viability (ATP), % of control: 59.8; Outcome: inactive

What did the screen give for Cnpy1 #2?
GFP, % of control: 57.8; viability (ATP), % of control: 57.3; Outcome: inactive

How did the screen score Cnpy1 #3?
GFP, % of control: 51.8; viability (ATP), % of control: 58.3; Outcome: inactive

What did the screen give for Lce1g #1?
GFP, % of control: 89.2; viability (ATP), % of control: 67.1; Outcome: inactive

What is on record for Lce1g #2?
GFP, % of control: 50.1; viability (ATP), % of control: 52.9; Outcome: inactive

Which result is listed for Lce1g #3?
GFP, % of control: 82.4; viability (ATP), % of control: 70.1; Outcome: inactive

With Ap3m1 #1, what was measured?
GFP, % of control: 77.2; viability (ATP), % of control: 72.4; Outcome: inactive

With Ap3m1 #2, what does the deposit list?
GFP, % of control: 40.9; viability (ATP), % of control: 50.8; Outcome: inactive

With Ap3m1 #3, how do the results read?
GFP, % of control: 72.5; viability (ATP), % of control: 75.6; Outcome: inactive

How did the screen score Atp8b3 #1?
GFP, % of control: 121; viability (ATP), % of control: 109; Outcome: active

With Atp8b3 #2, what does the deposit list?
GFP, % of control: 67.5; viability (ATP), % of control: 99.6; Outcome: inactive

With Atp8b3 #3, how do the results read?
GFP, % of control: 91; viability (ATP), % of control: 80.5; Outcome: inactive
